Experimental data reported in the supplement of paper PMC8256030.
“And” between values parts separate entries of the source, which are not always exact repeats. Identical values can stand only once. This is one part of the list. Repeats in this data set agree poorly, so a single value says little.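 HEK293T cells were given each compound shortly before transfection with a reporter in which red mCherry is followed by the SARS-CoV-2 frameshift element and then GFP in the −1 frame, so GFP appears only after frameshifting.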

Tested on: HEK293T
Assay: percent viability (nuclei count) relative to control; higher = more viable cells
Details: 10 µM; 24 h

Row | Structure (SMILES) | percent viability
1 | C=C1[C@H](CO)[C@@H](O)C[C@@H]1n1cnc2c(=O)[nH]c(N)nc21 [entecavir] | 159%
2 | CC(C)[C@H](NC(=O)[C@H](CC(=O)O)NC(=O)[C@H](CCCCN)NC(=O)[C@@H](N)CCCN=C(N)N)C(=O)N[C@@H](Cc1ccc(O)cc1)C(=O)O [thymopentin] | 189%
3 | CCOC(=O)OC(C)OC(=O)[C@@H]1N2C(=O)[C@@H](NC(=O)[C@H](N)c3ccccc3)[C@H]2SC1(C)C (stereo not given in full) [bacampicillin] | 41.2%
4 | CC(=O)Oc1cc2c(s1)CCN(C(C(=O)C1CC1)c1ccccc1F)C2 (stereo not given) | 116%
5 | COc1ccccc1OCC(O)CN1CCN(CC(=O)Nc2c(C)cccc2C)CC1 (stereo not given) [ranolazine] | 213% and 241%
6 | C[C@@H]1C[C@H]2[C@@H]3C[C@H](F)C4=CC(=O)C=C[C@]4(C)[C@H]3[C@@H](O)C[C@]2(C)[C@@]1(O)C(=O)CO [paramethasone] | 414%
7 | O=S(O)CNc1ccc(S(=O)(=O)c2ccc(NCS(=O)O)cc2)cc1 [aldesulfone] | 347%
8 | CC(=O)SC[C@H](Cc1ccccc1)C(=O)NCC(=O)OCc1ccccc1 [dexecadotril] | 267%
9 | Cc1nccc2[nH]c(=O)ccc12 [medorinone] | 50.3%
10 | CCN(CC)C(=O)[C@@]1(c2ccccc2)C[C@H]1CN [Levomilnacipran] | 318%
11 | COc1ccccc1O [Guaiacol] | 164%
12 | CN1C(C(=O)Nc2ccccn2)=C(O)c2sc(Cl)cc2S1(=O)=O [lornoxicam] | 169%
13 | CCOC(=O)C(C#N)=C(c1ccccc1)c1ccccc1 [etocrilene] | 79.5%
14 | Cc1ccc(S(=O)(=O)NC(=O)NN2CC3CCCC3C2)cc1 (stereo not given) [Gliclazide] | 233%
15 | O=C1NCCNC1c1cccs1 (stereo not given) [tenilsetam] | 244%
16 | CN(Cc1ccc(C(C)(C)C)cc1)Cc1cccc2ccccc12 [butenafine] | 152%
17 | CCCCC(CC)COC(=O)C=Cc1ccc(OC)cc1 (stereo not given) [octinoxate] | 65.7%
18 | COC(=O)C1=C(C)NC(C)=C(C(=O)OCC(C)C)C1c1ccccc1[N+](=O)[O-] (stereo not given) [nisoldipine] | 218% and 188%
19 | CCOc1ccc(S(=O)(=O)O)c2cccnc12 [actinoquinol] | 116%
20 | CC(C)C[C@H]1C(=O)O[C@H](Cc2ccc(N3CCOCC3)cc2)C(=O)N(C)[C@@H](CC(C)C)C(=O)O[C@H](C)C(=O)N(C)[C@@H](CC(C)C)C(=O)O[C@H](Cc2ccc(N3CCOCC3)cc2)C(=O)N(C)[C@@H](CC(C)C)C(=O)O[C@H](C)C(=O)N1C [emodepside] | 194%

Row | Structure (SMILES) | percent viability
21 | CCOC(=O)NNc1nncc2ccccc12 | 198%
22 | Cc1cn([C@H]2C=C[C@@H](CO)O2)c(=O)[nH]c1=O [stavudine] | 165%
23 | C[N+](C)(C)NCCC(=O)[O-] [meldonium] | 344%
24 | CNC1CCCN(c2c(F)cc3c(=O)c(C(=O)O)cn(C4CC4)c3c2OC)C1 (stereo not given) [balofloxacin] | 175%
25 | CC(C)[N+]1(C)[C@@H]2CC[C@H]1CC(OC(=O)C(CO)c1ccccc1)C2 (stereo not given in full) | 180%
26 | CC(C(=O)O)c1ccc2c(c1)CC(=O)c1ccccc1S2 (stereo not given) [zaltoprofen] | 212%
27 | CCOc1ccc2ccccc2c1C(=O)N[C@@H]1C(=O)N2[C@@H]1SC(C)(C)[C@@H]2C(=O)O [Unipen] | 124%
28 | Cc1ccc2c(Br)cc(Br)c(O)c2n1 [broquinaldol] | 85.5%
29 | CC(=O)O[C@]1(C(C)=O)CC[C@H]2[C@@H]3C=C(C)C4=CC(=O)CC[C@]4(C)[C@H]3CC[C@@]21C | 112%
30 | OC[C@H]1O[C@@H](n2cnc3c2N=CNC[C@H]3O)C[C@@H]1O [Pentostatin] | 16.6%
31 | CN(C)NC(=O)c1ccc(Cl)c(S(N)(=O)=O)c1 [alipamide] | 83.3%
32 | C=C1/C(=C\C=C2/CCC[C@]3(C)[C@@H]([C@H](C)/C=C/[C@H](C)C(C)C)CC[C@@H]23)C[C@@H](O)C[C@@H]1O [doxercalciferol] | 175%
33 | N=C(N)NCC1COC2(CCCCC2)O1 (stereo not given) | 350%
34 | O=C1C[C@@]2(C(=O)N1)C(=O)N(Cc1ccc(Br)cc1F)C(=O)c1cccn12 [ranirestat] | 62.6%
35 | COc1ccc(/C=N/NC(=O)c2ccncc2)cc1OC [verazide] | 127%
36 | CC(C)c1c(C(=O)Nc2ccccc2)c(-c2ccccc2)c(-c2ccc(F)cc2)n1CC[C@@H](O)C[C@@H](O)CC(=O)O | 254%
37 | CC1CC(=O)NN=C1c1cc(-n2ccnc2)cs1 (stereo not given) [motapizone] | 118%
38 | CN(C)C(=N)NC(=N)N [Metformin] | 262%
39 | C#C[C@]1(OC(C)=O)CC[C@H]2[C@@H]3CCC4=CC(=NO)CC[C@@H]4[C@H]3CC[C@@]21CC (mixture of isomers) [norgestimate] | 212%
40 | C[C@@H]1C/C=C/C=C/C=C/C=C/[C@H](O[C@@H]2O[C@H](C)[C@@H](O)[C@H](N)[C@@H]2O)C[C@@H]2O[C@](O)(C[C@@H](O)C[C@H]3O[C@@H]3/C=C/C(=O)O1)C[C@H](O)[C@H]2C(=O)O [Natacyn] | 289%
